Laboratory results from patent publication US20190276511A1 (BIONTECH RNA PHARMACEUTICALS, published 2019).
These are yes or no findings as the source states them, for the method shown. Some binding calls cover weakened binding; strength is not graded here. For part of these data: Where a sequence is shown, tags or fusion partners need not be part of it.

The chains behind the UniProt entries cited, without tags or fusion partners. Where a name states a change or a piece, a line headed by the entry shows the natural chain unless it says otherwise.
UniProt Q07011: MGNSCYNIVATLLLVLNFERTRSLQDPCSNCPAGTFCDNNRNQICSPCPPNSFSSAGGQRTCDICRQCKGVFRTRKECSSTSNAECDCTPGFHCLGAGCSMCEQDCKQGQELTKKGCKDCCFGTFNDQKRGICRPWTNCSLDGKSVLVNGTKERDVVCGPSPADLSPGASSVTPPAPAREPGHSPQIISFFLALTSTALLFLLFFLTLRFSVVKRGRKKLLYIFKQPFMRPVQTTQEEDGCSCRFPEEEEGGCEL
UniProt P25942: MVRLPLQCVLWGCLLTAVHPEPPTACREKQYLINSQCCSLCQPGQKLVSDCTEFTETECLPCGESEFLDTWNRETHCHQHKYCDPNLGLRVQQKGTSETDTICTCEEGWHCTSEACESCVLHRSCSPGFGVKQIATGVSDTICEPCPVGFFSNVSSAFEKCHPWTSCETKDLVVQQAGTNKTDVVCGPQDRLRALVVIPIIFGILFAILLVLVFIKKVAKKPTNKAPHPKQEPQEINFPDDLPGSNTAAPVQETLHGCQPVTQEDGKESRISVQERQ

Legend:
4-1BB-Fc [1] = target: T1, 4-1BB-Fc (human, UniProt Q07011 24-186); assay: flow cytometry, soluble receptor-Fc (10 nM) on cell-bound scDuokine
T1 construct: extracellular domain; hinge included for covalent assembly; also called 4-1BB receptor-Fc fusion protein; not shown: human Fc gamma 1 region including the hinge region

CD27-Fc [2] = target: T2, CD27-Fc (human, UniProt P26842 20-191); assay: as above
T2 construct: extracellular domain; hinge included for covalent assembly; also called CD27 receptor-Fc fusion protein; not shown: human Fc gamma 1 region including the hinge region
T2 sequence (looked up): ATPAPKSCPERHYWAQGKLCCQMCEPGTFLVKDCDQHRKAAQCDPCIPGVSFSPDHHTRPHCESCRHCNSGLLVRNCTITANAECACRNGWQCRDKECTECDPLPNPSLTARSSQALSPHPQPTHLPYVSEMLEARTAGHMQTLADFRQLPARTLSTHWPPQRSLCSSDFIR

4-1BB receptor on cells [3] = target: T3, 4-1BB receptor on cells (human, UniProt Q07011 24-255); assay: flow cytometry, HT1080 transfectants, 100 nM
[4] = target: CD27 receptor on cells (human) (UniProt P26842); assay: flow cytometry, HT1080 transfectants, 100 nM
4-1BB receptor on cells [5] = target: T3, 4-1BB receptor on cells; assay: flow cytometry, receptor on HT1080 cells, second receptor-Fc for detection
[6] = target: CD27 receptor on cells (human) (UniProt P26842); assay: as above
4-1BB-Fc [7] = target: T1, 4-1BB-Fc; assay: ELISA titration from 316 nM
CD27-Fc [8] = target: T2, CD27-Fc; assay: ELISA titration from 316 nM
4-1BB-Fc [9] = target: T1, 4-1BB-Fc; assay: ELISA, 100 nM, immobilized receptor-Fc
CD27-Fc [10] = target: T2, CD27-Fc; assay: ELISA, 100 nM, immobilized receptor-Fc
4-1BB-Fc [11] = target: T1, 4-1BB-Fc; assay: ELISA, coated receptor-Fc
CD27-Fc [12] = target: T2, CD27-Fc; assay: ELISA, coated receptor-Fc
OX40-Fc [13] = target: T4, OX40-Fc (human, UniProt P43489 29-214); assay: flow cytometry, soluble receptor-Fc (10 nM) on cell-bound scDuokine
T4 construct: extracellular domain; hinge included for covalent assembly; also called OX40 receptor-Fc fusion protein; not shown: human Fc gamma 1 region including the hinge region
T4 sequence (looked up): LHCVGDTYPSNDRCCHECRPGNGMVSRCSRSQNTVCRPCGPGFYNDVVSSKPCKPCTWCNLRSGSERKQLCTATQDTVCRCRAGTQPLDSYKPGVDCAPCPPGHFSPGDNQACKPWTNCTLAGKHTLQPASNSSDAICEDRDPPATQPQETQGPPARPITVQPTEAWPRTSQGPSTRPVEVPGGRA

OX40 receptor on cells [14] = target: T5, OX40 receptor on cells (human, UniProt P43489 29-277); assay: flow cytometry, HT1080 transfectants, 100 nM
T5 sequence (looked up): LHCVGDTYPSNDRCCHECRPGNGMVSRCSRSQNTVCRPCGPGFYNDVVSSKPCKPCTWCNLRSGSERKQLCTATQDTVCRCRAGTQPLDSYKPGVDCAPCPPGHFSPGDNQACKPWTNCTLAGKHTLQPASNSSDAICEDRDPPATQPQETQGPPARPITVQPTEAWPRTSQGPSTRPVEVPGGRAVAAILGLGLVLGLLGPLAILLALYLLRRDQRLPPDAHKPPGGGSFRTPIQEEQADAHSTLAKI

OX40 receptor on cells [15] = target: T5, OX40 receptor on cells; assay: flow cytometry, receptor on HT1080 cells, second receptor-Fc for detection
OX40-Fc [16] = target: T4, OX40-Fc; assay: ELISA titration from 316 nM
OX40-Fc [17] = target: T4, OX40-Fc; assay: ELISA, 100 nM, immobilized receptor-Fc
OX40-Fc [18] = target: T4, OX40-Fc; assay: ELISA, coated receptor-Fc
CD40-Fc [19] = target: T6, CD40-Fc (human, UniProt P25942 21-193); assay: flow cytometry, soluble receptor-Fc (10 nM) on cell-bound scDuokine
T6 construct: extracellular domain; hinge included for covalent assembly; also called CD40 receptor-Fc fusion protein; not shown: human Fc gamma 1 region including the hinge region

CD40 receptor on cells [20] = target: T7, CD40 receptor on cells (human, UniProt P25942 21-277); assay: flow cytometry, HT1080 transfectants, 100 nM
CD40 receptor on cells [21] = target: T7, CD40 receptor on cells; assay: flow cytometry, receptor on HT1080 cells, second receptor-Fc for detection
CD40-Fc [22] = target: T6, CD40-Fc; assay: ELISA titration from 316 nM
CD40-Fc [23] = target: T6, CD40-Fc; assay: ELISA, 100 nM, immobilized receptor-Fc
CD40-Fc [24] = target: T6, CD40-Fc; assay: ELISA, coated receptor-Fc

Measured: binding

B1: scCD27L-sc4-1BBL (ligand)
chain: SLGWDVAELQLNHTGPQQDPRLYWQGGPALGRSFLHGPELDKGQLRIHRDGIYMVHIQVTLAICSSTTASRHHPTTLAVGICSPASRSISLLRLSFHQGCTIASQRLTPLARGDTLCTNLTGTLLPSRNTDETFFGVQWVRPGGGSGGGSLGWDVAELQLNHTGPQQDPRLYWQGGPALGRSFLHGPELDKGQLRIHRDGIYMVHIQVTLAICSSTTASRHHPTTLAVGICSPASRSISLLRLSFHQGCTIASQRLTPLARGDTLCTNLTGTLLPSRNTDETFFGVQWVRPGGGSGGGSLGWDVAELQLNHTGPQQDPRLYWQGGPALGRSFLHGPELDKGQLRIHRDGIYMVHIQVTLAICSSTTASRHHPTTLAVGICSPASRSISLLRLSFHQGCTIASQRLTPLARGDTLCTNLTGTLLPSRNTDETFFGVQWVRPGGGGSGGGTGGGGSREGPELSPDDPAGLLDLRQGMFAQLVAQNVLLIDGPLSWYSDPGLAGVSLTGGLSYKEDTKELVVAKAGVYYVFFQLELRRVVAGEGSGSVSLALHLQPLRSAAGAAALALTVDLPPASSEARNSAFGFQGRLLHLSAGQRLGVHLHTEARARHAWQLTQGATVLGLFRVTPEIPAGLPSPRSEGGGGSGGGGSGGGGSREGPELSPDDPAGLLDLRQGMFAQLVAQNVLLIDGPLSWYSDPGLAGVSLTGGLSYKEDTKELVVAKAGVYYVFFQLELRRVVAGEGSGSVSLALHLQPLRSAAGAAALALTVDLPPASSEARNSAFGFQGRLLHLSAGQRLGVHLHTEARARHAWQLTQGATVLGLFRVTPEIPAGLPSPRSEGGGGSGGGGSGGGGSREGPELSPDDPAGLLDLRQGMFAQLVAQNVLLIDGPLSWYSDPGLAGVSLTGGLSYKEDTKELVVAKAGVYYVFFQLELRRVVAGEGSGSVSLALHLQPLRSAAGAAALALTVDLPPASSEARNSAFGFQGRLLHLSAGQRLGVHLHTEARARHAWQLTQGATVLGLFRVTPEIPAGLPSPRSE
notes: scDuokine from HEK293; VH leader left out; also called single-chain Duokine scCD27L-sc4-1BBL; not shown: N-terminal FLAG tag
binds: 4-1BB-Fc [1] | CD27-Fc [2] | 4-1BB receptor on cells [3] | [4] | 4-1BB receptor on cells [5] | [6] | 4-1BB-Fc [7] | CD27-Fc [8] | 4-1BB-Fc [9] | CD27-Fc [10] | 4-1BB-Fc [11] | CD27-Fc [12]

B2: scOX40L-sc4-1BBL (ligand)
chain: QVSHRYPRIQSIKVQFTEYKKEKGFILTSQKEDEIMKVQNNSVIINCDGFYLISLKGYFSQEVNISLHYQKDEEPLFQLKKVRSVNSLMVASLTYKDKVYLNVTTDNTSLDDFHVNGGELILIHQNPGEFCVLGGGSGGGQVSHRYPRIQSIKVQFTEYKKEKGFILTSQKEDEIMKVQNNSVIINCDGFYLISLKGYFSQEVNISLHYQKDEEPLFQLKKVRSVNSLMVASLTYKDKVYLNVTTDNTSLDDFHVNGGELILIHQNPGEFCVLGGGSGGGQVSHRYPRIQSIKVQFTEYKKEKGFILTSQKEDEIMKVQNNSVIINCDGFYLISLKGYFSQEVNISLHYQKDEEPLFQLKKVRSVNSLMVASLTYKDKVYLNVTTDNTSLDDFHVNGGELILIHQNPGEFCVLGGGGSGGGTGGGGSREGPELSPDDPAGLLDLRQGMFAQLVAQNVLLIDGPLSWYSDPGLAGVSLTGGLSYKEDTKELVVAKAGVYYVFFQLELRRVVAGEGSGSVSLALHLQPLRSAAGAAALALTVDLPPASSEARNSAFGFQGRLLHLSAGQRLGVHLHTEARARHAWQLTQGATVLGLFRVTPEIPAGLPSPRSEGGGGSGGGGSGGGGSREGPELSPDDPAGLLDLRQGMFAQLVAQNVLLIDGPLSWYSDPGLAGVSLTGGLSYKEDTKELVVAKAGVYYVFFQLELRRVVAGEGSGSVSLALHLQPLRSAAGAAALALTVDLPPASSEARNSAFGFQGRLLHLSAGQRLGVHLHTEARARHAWQLTQGATVLGLFRVTPEIPAGLPSPRSEGGGGSGGGGSGGGGSREGPELSPDDPAGLLDLRQGMFAQLVAQNVLLIDGPLSWYSDPGLAGVSLTGGLSYKEDTKELVVAKAGVYYVFFQLELRRVVAGEGSGSVSLALHLQPLRSAAGAAALALTVDLPPASSEARNSAFGFQGRLLHLSAGQRLGVHLHTEARARHAWQLTQGATVLGLFRVTPEIPAGLPSPRSE
notes: scDuokine from HEK293; VH leader left out; also called single-chain Duokine scOX40L-sc4-1BBL; not shown: N-terminal FLAG tag
binds: 4-1BB-Fc [1] | OX40-Fc [13] | 4-1BB receptor on cells [3] | OX40 receptor on cells [14] | 4-1BB receptor on cells [5] | OX40 receptor on cells [15] | 4-1BB-Fc [7] | OX40-Fc [16] | 4-1BB-Fc [9] | OX40-Fc [17] | 4-1BB-Fc [11] | OX40-Fc [18]

B3: scCD40L-sc4-1BBL (ligand)
chain: GDQNPQIAAHVISEASSKTTSVLQWAEKGYYTMSNNLVTLENGKQLTVKRQGLYYIYAQVTFCSNREASSQAPFIASLCLKSPGRFERILLRAANTHSSAKPCGQQSIHLGGVFELQPGASVFVNVTDPSQVSHGTGFTSFGLLKLGGGSGGGGDQNPQIAAHVISEASSKTTSVLQWAEKGYYTMSNNLVTLENGKQLTVKRQGLYYIYAQVTFCSNREASSQAPFIASLCLKSPGRFERILLRAANTHSSAKPCGQQSIHLGGVFELQPGASVFVNVTDPSQVSHGTGFTSFGLLKLGGGSGGGGDQNPQIAAHVISEASSKTTSVLQWAEKGYYTMSNNLVTLENGKQLTVKRQGLYYIYAQVTFCSNREASSQAPFIASLCLKSPGRFERILLRAANTHSSAKPCGQQSIHLGGVFELQPGASVFVNVTDPSQVSHGTGFTSFGLLKLGGGGSGGGTGGGGSREGPELSPDDPAGLLDLRQGMFAQLVAQNVLLIDGPLSWYSDPGLAGVSLTGGLSYKEDTKELVVAKAGVYYVFFQLELRRVVAGEGSGSVSLALHLQPLRSAAGAAALALTVDLPPASSEARNSAFGFQGRLLHLSAGQRLGVHLHTEARARHAWQLTQGATVLGLFRVTPEIPAGLPSPRSEGGGGSGGGGSGGGGSREGPELSPDDPAGLLDLRQGMFAQLVAQNVLLIDGPLSWYSDPGLAGVSLTGGLSYKEDTKELVVAKAGVYYVFFQLELRRVVAGEGSGSVSLALHLQPLRSAAGAAALALTVDLPPASSEARNSAFGFQGRLLHLSAGQRLGVHLHTEARARHAWQLTQGATVLGLFRVTPEIPAGLPSPRSEGGGGSGGGGSGGGGSREGPELSPDDPAGLLDLRQGMFAQLVAQNVLLIDGPLSWYSDPGLAGVSLTGGLSYKEDTKELVVAKAGVYYVFFQLELRRVVAGEGSGSVSLALHLQPLRSAAGAAALALTVDLPPASSEARNSAFGFQGRLLHLSAGQRLGVHLHTEARARHAWQLTQGATVLGLFRVTPEIPAGLPSPRSE
notes: scDuokine from HEK293; VH leader left out; also called single-chain Duokine scCD40L-sc4-1BBL; not shown: N-terminal FLAG tag
binds: 4-1BB-Fc [1] | CD40-Fc [19] | 4-1BB receptor on cells [3] | CD40 receptor on cells [20] | 4-1BB receptor on cells [5] | CD40 receptor on cells [21] | 4-1BB-Fc [7] | CD40-Fc [22] | 4-1BB-Fc [9] | CD40-Fc [23] | 4-1BB-Fc [11] | CD40-Fc [24]
